Measured values: publication PMC9039263
Results are given in words; binding and its absence hold for the method and conditions named. In cells and extracts the contact can be indirect. Some binding calls cover weakened binding; strength is not graded here. Each block holds one binder with its values, some of them ahead of it.

What was measured:
[1] = molecular target: T1, FBJ osteosarcoma oncogene related antigen 1 (Fra-1) (rat (endogenous in primary thoracic aortic VSMCs)) (UniProt P10158); test: co-IP; endogenous proteins in lysates of VSMCs infected with C. pneumoniae (5 × 10^5 IFU) for 24 h; 500 μg cellular protein, 2 μg anti-JunB or anti-Fra-1 antibody, Protein A/G PLUS-Agarose, 4°C overnight; Western blot
T1 sequence: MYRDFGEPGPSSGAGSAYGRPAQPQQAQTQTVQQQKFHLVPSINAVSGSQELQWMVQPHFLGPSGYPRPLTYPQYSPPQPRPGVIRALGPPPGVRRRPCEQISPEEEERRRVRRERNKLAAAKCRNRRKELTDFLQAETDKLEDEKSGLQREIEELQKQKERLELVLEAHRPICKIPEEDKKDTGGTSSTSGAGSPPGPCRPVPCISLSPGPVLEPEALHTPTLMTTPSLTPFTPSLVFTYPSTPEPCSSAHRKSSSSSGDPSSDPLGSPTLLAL

[2] = molecular target: T2, JunB Proto-Oncogene (JunB) (rat (endogenous in primary thoracic aortic VSMCs)) (UniProt P24898); test: as above
T2 sequence: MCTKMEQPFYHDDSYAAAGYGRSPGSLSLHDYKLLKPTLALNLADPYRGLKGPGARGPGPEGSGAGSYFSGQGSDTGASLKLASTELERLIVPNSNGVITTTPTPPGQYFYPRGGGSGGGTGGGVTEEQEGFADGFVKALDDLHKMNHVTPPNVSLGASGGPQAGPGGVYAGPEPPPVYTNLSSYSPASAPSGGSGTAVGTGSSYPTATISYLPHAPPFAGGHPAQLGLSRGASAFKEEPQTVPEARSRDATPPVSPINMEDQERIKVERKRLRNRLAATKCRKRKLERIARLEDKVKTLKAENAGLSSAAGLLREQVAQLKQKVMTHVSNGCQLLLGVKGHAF

binding [1]: binds
B1: JunB Proto-Oncogene (JunB) (protein, UniProt P24898 1-344)
chain: T2 sequence

binding [2]: binds
B2: FBJ osteosarcoma oncogene related antigen 1 (Fra-1) (protein, UniProt P10158 1-275)
chain: T1 sequence
